Assay results published in PubChem BioAssay AID504444 (National Center for Advancing Translational Sciences (NCATS), 2011).
Out of some 360,000 compounds screened, about 7,500 (2.1%) were called active. Inconclusive results, whose numbers are uncertain, are shown with a selection of clear calls. The call rests on the fitted dose curve; in most records, active means well fitted inhibition curve with a large enough effect; inconclusive means small, poorly fitted or top-dose-only effect, or effect the other way; inactive means flat fitted curve, though single readings scatter. Potencies beside an inconclusive call are fits to weak or partial responses and may not hold up.

Assay: Nrf2 qHTS screen for inhibitors; further: nearly all actives have a fitted effect of over 60% in size
Settings: A549 ARE-Fluc reporter, luciferase luminescence, 18-24 h; activity change, negative = inhibition: at 46 µM (top of the series)
In short: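 Nrf2 activity is the BugLite luminescence, read 15 min after reagent at room temperature, following CellTiter-Fluor cytotoxicity readout (30 min, 37C). Compound titrations were applied for 18-24 h to 5000 A549 ARE_Fluc cells/well in 5% FBS OPTI-MEM.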
On the % scale 0 is the no-effect control and ±100 the full control effect; potency means the concentration at half of the fitted maximal effect.

Structure (SMILES)	Potency	activity change, negative = inhibition
COc1ccc(NCc2cccn2-c2nnc(N3CCOCC3)s2)cc1OC	inconclusive: 23.1 µM [activator, single point]	
CC1CCN(c2ccc3c(c2)S(=O)(=O)c2cccc(C(=O)NC[C@@H]4CCCO4)c2C3=O)CC1		inactive: 8.75%
O=C(Nc1nc2ccccc2s1)c1cccc(S(=O)(=O)N2CCc3ccccc32)c1	inconclusive: 29.1 µM [falling, single point]	
CCN(CC)C(=O)Cn1c(=O)n(-c2ccccc2)c(=O)c2sccc21	inconclusive: 9.2 µM [falling, partial curve, poor fit]	
CCCc1nc2ccccc2c(C(=O)OCc2nnc(-c3cc(OC)c(OC)c(OC)c3)o2)c1CC	inconclusive: 20.6 µM [falling, single point]	
O=C(Nc1ccccc1)Nc1ccc(-n2ccc(C(F)(F)F)n2)cc1	inconclusive: 2.31 µM [activator, full curve]	
O=[N+]([O-])c1cccc(S(=O)(=O)Nc2nc3ccccc3nc2Nc2cccc(S(=O)(=O)N3CCCCC3)c2)c1	inconclusive: 2.06 µM [falling, full curve]	
c1ccc(-c2csc(-c3cccnc3)n2)cc1	inconclusive: 18.4 µM [activator, single point]	
COc1ccc(Cc2nc(C(=O)Nc3ccc(Cl)cc3)cs2)cc1	inconclusive: 29.1 µM [falling, single point]	
COc1cc(C(C[N+](=O)[O-])c2c(C)[nH]c3ccccc23)cc(OC)c1OC (stereo unspecified)		inactive: 3.77%
Nc1ccc2c3c(cccc13)CC2		inactive: -11.1%
CCc1cc(C(=O)OC)c(NC(=O)c2ccoc2C)s1		inactive: -0.494%
Cc1ccc(/C=N/NC(=O)CSc2nnc(-c3ccc(Cl)cc3)n2-c2ccc(Cl)cc2)o1	inconclusive: 18.4 µM [falling, partial curve, poor fit]	
COC(=O)c1scc(C)c1NC(=O)c1cccc(C#N)c1		inactive: 12%
Cc1cccc(/C(N)=N/OC(=O)COc2ccccc2Cl)c1	inconclusive: 29.1 µM [activator, single point]	
COCCCN=C1NN=C(c2cc(C)n(Cc3ccccc3Cl)c2C)CS1	inconclusive: 23.1 µM [activator, single point]	
Cc1ccc(C)c(-c2nnc(NC(=O)COc3ccccc3)o2)c1	inconclusive: 4.61 µM [activator, partial curve, poor fit]	
CC1(CC(=O)N/N=C/c2cc(Br)c(O)cc2O)OCCO1	inconclusive: 7.31 µM [falling, partial curve, poor fit]	
CCOCCc1nnc(NC(=O)c2cccc(F)c2)s1	inconclusive: 6.51 µM [activator, full curve, poor fit]	
CN(C)CCNC(=S)Nc1cccc(Cl)c1		inactive: 9.02%
O=C(CCl)N(Cc1ccccc1)c1ccccc1		inactive: -8.85%
CCOc1ccc(-c2c(C(=O)N/N=C/c3ccc(C)s3)nnn2-c2nonc2N)cc1	active: 23.1 µM	

Some of the entries above, reformatted.
Structure (SMILES) | Potency | activity change, negative = inhibition
O=C(CCl)N(Cc1ccccc1)c1ccccc1 |  | inactive: -8.85%
CCOc1ccc(-c2c(C(=O)N/N=C/c3ccc(C)s3)nnn2-c2nonc2N)cc1 | active: 23.1 µM | 

Next part.

Structure (SMILES)	Potency	activity change, negative = inhibition
COc1ccc(-c2cn3c(n2)sc2cc(C(=O)NC(C)C45CC6CC(CC(C6)C4)C5)ccc23)cc1 (stereo unspecified)		inactive: 9.59%
Cc1ccc(C(=O)/C=C\NCc2ccccc2)cc1	inconclusive: 4.11 µM [activator, partial curve, poor fit]	
CCCCOc1cccc(C2/C(=C(/O)c3ccc4c(c3)CC(C)O4)C(=O)C(=O)N2CCN2CCOCC2)c1 (stereo unspecified)	inconclusive: 32.6 µM [falling, single point]	
Cc1nc2ccccc2n1CC(O)COc1ccc(Br)cc1 (stereo unspecified)	inconclusive: 23.1 µM [falling, partial curve]	
Cc1ccc(C(=O)Nc2cc3ccccc3oc2=O)cc1	inconclusive: 0.731 µM [activator, partial curve, poor fit]	
Cc1cccc(/C(N)=N/OC(=O)c2ccc(F)cc2)c1	inconclusive: 10.3 µM [activator, partial curve]	
CCOc1ccc(C(=O)N2CCc3ccccc32)cc1	inconclusive: 2.59 µM [activator, full curve]	
CCCOc1ccc(/C(O)=C2\C(=O)C(=O)N(c3ccccn3)C2c2ccccc2F)cc1C (stereo unspecified)	inconclusive: 23.1 µM [activator, partial curve, poor fit]	
c1ccc(-c2nc3c(ccc4ccccc43)[nH]2)nc1	inconclusive: 2.31 µM [activator, full curve]	
C/C(=N\NC(=O)c1cccc(N/N=C(\C)c2ccco2)c1)c1ccco1	inconclusive: 5.8 µM [activator, partial curve]	
CCCC(=O)c1ccc(N2CCN(C(=O)c3ccccc3Br)CC2)c(F)c1	inconclusive: 25.9 µM [falling, partial curve, poor fit]	
CC(=O)NC1(C(Cl)(Cl)Cl)Oc2ccccc2O1	inconclusive: 25.9 µM [activator, partial curve, poor fit]	
CCN(CC)S(=O)(=O)c1ccc(C(=O)NC(C)(C)C)cc1	inconclusive: 0.58 µM [activator, partial curve, poor fit]	
CCCCn1nc(C(=O)N(C)CC(=O)Nc2ccc(F)c(F)c2F)ccc1=O		inactive: -11.7%
CC(=O)Nc1ccc(NC(=O)c2cc(CN3CCCC3)on2)cc1	inconclusive: 29.1 µM [activator, single point]	
N#C/C(=N\Nc1ccc(S(=O)(=O)N2CCCCC2)cc1)C(N)=S	inconclusive: 13 µM [falling, partial curve, poor fit]	
Cc1ccc(-n2nc3c(N4CCC(C(=O)NCc5ccccc5C)CC4)nnc(C)c3c2C)cc1	inconclusive: 29.1 µM [falling, single point]	
CC1CCC/C=C/C(=O)c2c(O)cc(O)cc2CC(=O)O1 (stereo unspecified)	active: 5.8 µM	
CCCN(CCC)S(=O)(=O)c1ccc(C(=O)Nc2nnc(-c3cc(OC)cc(OC)c3)o2)cc1	inconclusive: 3.26 µM [falling, full curve, poor fit]	
CC1(C)Oc2ccc3ccc(=O)oc3c2/C(=C/N)C1=O	inconclusive: 9.2 µM [falling, partial curve, poor fit]	
CC1(C)CC(NC(=O)c2sc3cc(Cl)ccc3c2Cl)CC(C)(C)N1		inactive: 2.85%
COc1ccc(/C=C(/CC(=O)Nc2ccccc2)c2nc3ccccc3s2)cc1	inconclusive: 29.1 µM [activator, single point]	

Structure (SMILES)	Potency	activity change, negative = inhibition
CCN1CCN(CCNC(=O)c2ccc3c(c2)NC(=O)/C(=C\c2ccc(OC)c(OC)c2)S3)CC1	inconclusive: 20.6 µM [falling, single point]	
CCOc1ccc(NC(=O)C(CC(C)C)N2Cc3ccccc3C2=O)cc1 (stereo unspecified)	inconclusive: 29.1 µM [activator, single point]	
N#C/C(=C\c1cccn1-c1ccccc1)C(=O)NC1CCCCC1		inactive: -7.24%
Cc1cccc(C(=O)Nc2c(C(=O)N3CCN(c4ccc(F)cc4)CC3)oc3ccccc23)c1	inconclusive: 1.03 µM [falling, partial curve, poor fit]	
CC1CCCN(c2nc3nonc3nc2Nc2ccccc2F)C1 (stereo unspecified)	inconclusive: 13 µM [falling, partial curve]	
CCc1ccc2[nH]c(=O)c(CN(Cc3ccccc3OC)Cc3nnnn3Cc3ccco3)cc2c1	inconclusive: 29.1 µM [falling, single point]	
Clc1ccc(COn2c(-c3ccccc3)nc3ccccc32)cc1	inconclusive: 0.82 µM [falling, partial curve, poor fit]	
Cc1cc(=O)n(Cc2c(F)cccc2Cl)c2c1c(C)nn2-c1cccc(F)c1	inconclusive: 29.1 µM [activator, single point]	
CCOc1ccc(NC(=S)Nc2ccccc2C2(C)CC2)cc1	inconclusive: 14.6 µM [falling, partial curve, poor fit]	
Cc1ccc2[nH]c(O)c(N=Nc3nc4ccccc4s3)c2c1	inconclusive: 29.1 µM [falling, single point]	
Cc1ccc(S(=O)(=O)N(CC(=O)Nc2ccc(F)cc2F)Cc2ccc(F)cc2)cc1	inconclusive: 16.4 µM [falling, single point]	
O=C(/C=C/c1ccc(Cl)cc1Cl)Nc1ccc(CN2CCOCC2)cc1	active: 7.31 µM	
CCCN(CCC)c1nc(Cl)nc(NCc2ccco2)n1	inconclusive: 29.1 µM [falling, single point]	
c1ccc(N2CCN(c3nc4ccccc4n4cnnc34)CC2)cc1	inconclusive: 18.4 µM [activator, single point]	
O=C(NN1CCOCC1)c1cccc(Cl)c1		inactive: -18.4%
O=[N+]([O-])c1ccc(Cl)c(S(=O)(=O)Nc2ccc(-c3ccc(N4CCCC4)nn3)cc2)c1	inconclusive: 20.6 µM [falling, single point]	
O=C(CSc1nc2ccsc2c(=O)n1-c1ccc(Cl)cc1)NCc1ccc(Cl)cc1	inconclusive: 23.1 µM [falling, partial curve, poor fit]	
Clc1ccc2c(c1)C1=C(C(c3ccncc3)O2)C(c2ccc(Br)cc2)n2ncnc2N1 (stereo unspecified)	active: 13 µM	
CC1CCN(c2nc(-c3ccc(C(C)(C)C)cc3)nc3ccccc23)CC1	inconclusive: 14.6 µM [activator, partial curve]	
Cc1cc(C(=O)N2CCN(c3ncccn3)CC2)nn1C	inconclusive: 18.4 µM [falling, partial curve]	
CCOc1ccc(NC(=O)c2cc3cc(C)ccc3n2C)cc1		inactive: -1.76%
Cc1cccc(C(=O)Oc2ccc(/C=N/NC(=O)c3ccc(O)cc3)cc2)c1	inconclusive: 2.91 µM [falling, partial curve, poor fit]	

Grouped by structure, those above containing a tert-butyl group (two)
Structure (SMILES)	Potency	activity change, negative = inhibition
CCN(CC)S(=O)(=O)c1ccc(C(=O)NC(C)(C)C)cc1	inconclusive: 0.58 µM [activator, partial curve, poor fit]	
CC1CCN(c2nc(-c3ccc(C(C)(C)C)cc3)nc3ccccc23)CC1	inconclusive: 14.6 µM [activator, partial curve]	
